Several values for one entry are separate records, joined by “and”; a condition that tells them apart may be missing. Equal values may be shown once.
Tests used:
[1] = In-solution digest of plasma, quantitative MS/MS (relative protein composition); set-up: species or system human; details: original plasma, no fibrils
[2] = In-solution digest of CSF, quantitative MS/MS (relative protein composition); set-up: species or system human; key to Identification status: CSF: *: Identified, but not quantified; —: Not identified in any of the samples; details: original CSF; for Relative composition of CSF proteins: CSF: no fibrils; for Identification status: CSF: symbol cells

| Substance | Relative composition of plasma proteins: Plasma [1] | Relative composition of CSF proteins: CSF [2] | Identification status: CSF [2] |
| --- | --- | --- | --- |
| Apolipoprotein A-I: plasma/CSF protein bound to fibrils | 1.9 ± 0.1 % of total protein | 0.4 ± 0.1 % of total protein |  |
| Apolipoprotein A-II: plasma/CSF protein bound to fibrils | 0.2 ± 0.0 % of total protein | 0.0 ± 0.0 % of total protein |  |
| Apolipoprotein B-100: plasma protein bound to fibrils | 0.2 ± 0.0 % of total protein |  |  |
| Apolipoprotein C-I: plasma protein bound to fibrils (TPDVSSALDKLKEFGNTLEDKARELISRIKQSELSAKMREWFSETFQKVKEKLKIDS; UniProt P02654 27-83, looked up) | 0.0 ± 0.0 % of total protein |  |  |
| Apolipoprotein C-III: plasma protein bound to fibrils | 0.1 ± 0.1 % of total protein |  |  |
| Apolipoprotein D: plasma/CSF protein bound to fibrils | 0.0 ± 0.0 % of total protein | 0.3 ± 0.0 % of total protein |  |
| Clusterin: plasma/CSF protein bound to fibrils | 0.0 ± 0.0 % of total protein | 0.5 ± 0.0 % of total protein |  |
| Complement C1s subcomponent: plasma/CSF protein bound to fibrils | 0.0 ± 0.0 % of total protein |  | * |
| Complement C3: plasma/CSF protein bound to fibrils | 0.4 ± 0.0 % of total protein | 0.1 ± 0.0 % of total protein |  |
| Dickkopf-related protein 3: CSF protein bound to fibrils |  | 0.3 ± 0.0 % of total protein |  |
| Fibrinogen β chain: plasma protein bound to fibrils | 1.3 ± 0.1 % of total protein |  |  |
| Fibrinogen γ chain: plasma protein bound to fibrils | 0.6 ± 0.0 % of total protein |  |  |
| Fibronectin | 0.0 ± 0.0 % of total protein |  | * |
| Gelsolin |  | 0.4 ± 0.0 % of total protein |  |
| Ig γ-1 chain C region: plasma/CSF protein bound to fibrils | 6.7 ± 0.2 % of total protein | 8.5 ± 0.2 % of total protein |  |
| Ig κ chain C region: CSF protein bound to fibrils |  | 1.0 ± 0.7 % of total protein |  |
| Transthyretin |  |  | * |
| Vitamin K-dependent protein S: plasma protein bound to fibrils | 0.0 ± 0.0 % of total protein |  |  |
| Vitronectin: plasma/CSF protein bound to fibrils | 0.2 % of total protein and 0.2 ± 0.0 % of total protein | below the detection limit | * |
| α1-antitrypsin: plasma/CSF protein bound to fibrils | 1.6 ± 0.1 % of total protein | 0.7 ± 0.0 % of total protein |  |
